This is one part of the list.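 Rule for the calls: active = dose-dependent thermal stabilisation significant by F-test of dose-response against flat model at 10% FDR; inactive = not significant.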
compound: Nc1nc2c(ncn2[C@@H]2O[C@H](COP(=O)(O)OP(=O)(O)OP(=O)(O)O)[C@@H](O)[C@H]2O)c(=O)[nH]1; assay: dose-dependent thermal stabilisation call (2D-TPP, DLPTP, 10% FDR) (binary (1 = stabilised)); higher = stabilised by the compound; settings: system: Jurkat gel-filtered lysate; concentration range 1-500 µM

Sequences of proteins named here, by UniProt entry; tags and fusion partners are left off. A change or cut given only in a name is not applied to a line headed by its entry.
UniProt Q8N8R7: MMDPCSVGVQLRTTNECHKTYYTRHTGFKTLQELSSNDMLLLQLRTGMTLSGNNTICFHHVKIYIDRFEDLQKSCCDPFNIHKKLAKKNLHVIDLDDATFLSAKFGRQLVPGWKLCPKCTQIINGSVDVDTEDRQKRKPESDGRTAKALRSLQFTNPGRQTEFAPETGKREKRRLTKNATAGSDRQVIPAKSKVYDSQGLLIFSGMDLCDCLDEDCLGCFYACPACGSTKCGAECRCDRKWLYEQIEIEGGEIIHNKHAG
UniProt Q13490, whole entry: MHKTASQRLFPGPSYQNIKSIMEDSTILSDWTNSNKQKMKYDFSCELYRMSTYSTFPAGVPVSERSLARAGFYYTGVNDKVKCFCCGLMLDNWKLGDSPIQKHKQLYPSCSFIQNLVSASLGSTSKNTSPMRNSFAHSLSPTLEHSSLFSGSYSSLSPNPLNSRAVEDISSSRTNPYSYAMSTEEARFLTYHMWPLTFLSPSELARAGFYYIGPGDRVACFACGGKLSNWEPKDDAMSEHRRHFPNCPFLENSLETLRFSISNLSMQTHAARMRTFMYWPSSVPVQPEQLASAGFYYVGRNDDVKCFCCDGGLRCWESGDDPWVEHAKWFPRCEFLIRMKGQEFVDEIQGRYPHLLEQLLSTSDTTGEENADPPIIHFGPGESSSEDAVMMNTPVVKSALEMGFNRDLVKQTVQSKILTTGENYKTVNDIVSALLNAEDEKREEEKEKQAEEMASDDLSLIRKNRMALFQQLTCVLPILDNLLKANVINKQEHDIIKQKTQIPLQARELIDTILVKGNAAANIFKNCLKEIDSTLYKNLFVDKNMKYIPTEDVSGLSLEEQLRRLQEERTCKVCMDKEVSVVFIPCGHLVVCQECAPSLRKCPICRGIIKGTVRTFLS
UniProt P17544: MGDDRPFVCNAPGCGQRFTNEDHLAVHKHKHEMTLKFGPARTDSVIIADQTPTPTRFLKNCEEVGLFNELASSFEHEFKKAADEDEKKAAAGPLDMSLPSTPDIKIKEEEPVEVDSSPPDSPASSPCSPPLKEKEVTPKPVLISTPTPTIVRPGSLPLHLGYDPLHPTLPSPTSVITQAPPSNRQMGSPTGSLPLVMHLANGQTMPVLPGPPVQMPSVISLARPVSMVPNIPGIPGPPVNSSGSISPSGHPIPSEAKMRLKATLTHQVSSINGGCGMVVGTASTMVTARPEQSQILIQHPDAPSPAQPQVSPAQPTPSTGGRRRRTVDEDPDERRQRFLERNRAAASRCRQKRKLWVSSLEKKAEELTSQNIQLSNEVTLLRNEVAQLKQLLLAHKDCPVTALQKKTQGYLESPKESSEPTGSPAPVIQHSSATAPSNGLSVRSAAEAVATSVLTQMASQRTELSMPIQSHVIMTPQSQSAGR
UniProt P15056, whole entry: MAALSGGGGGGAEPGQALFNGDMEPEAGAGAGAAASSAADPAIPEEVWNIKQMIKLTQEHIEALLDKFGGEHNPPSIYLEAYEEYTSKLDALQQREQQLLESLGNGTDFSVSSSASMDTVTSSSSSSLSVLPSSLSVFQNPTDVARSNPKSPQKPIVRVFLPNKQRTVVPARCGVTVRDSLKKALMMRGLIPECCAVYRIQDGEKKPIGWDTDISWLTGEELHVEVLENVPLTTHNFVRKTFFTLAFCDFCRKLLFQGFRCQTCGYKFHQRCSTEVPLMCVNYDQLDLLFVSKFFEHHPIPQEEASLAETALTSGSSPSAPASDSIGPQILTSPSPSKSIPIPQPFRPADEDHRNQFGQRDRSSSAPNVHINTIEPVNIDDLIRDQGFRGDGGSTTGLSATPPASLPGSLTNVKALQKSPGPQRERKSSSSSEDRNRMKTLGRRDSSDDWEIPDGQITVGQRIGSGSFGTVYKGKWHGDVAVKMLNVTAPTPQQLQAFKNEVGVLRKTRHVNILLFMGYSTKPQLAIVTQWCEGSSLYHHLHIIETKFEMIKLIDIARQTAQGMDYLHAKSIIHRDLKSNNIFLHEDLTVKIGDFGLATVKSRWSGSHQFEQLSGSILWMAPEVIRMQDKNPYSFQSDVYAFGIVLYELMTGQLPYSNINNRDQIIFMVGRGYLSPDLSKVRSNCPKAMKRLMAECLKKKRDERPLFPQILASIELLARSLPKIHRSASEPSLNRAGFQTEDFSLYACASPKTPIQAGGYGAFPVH
UniProt O43684, whole entry: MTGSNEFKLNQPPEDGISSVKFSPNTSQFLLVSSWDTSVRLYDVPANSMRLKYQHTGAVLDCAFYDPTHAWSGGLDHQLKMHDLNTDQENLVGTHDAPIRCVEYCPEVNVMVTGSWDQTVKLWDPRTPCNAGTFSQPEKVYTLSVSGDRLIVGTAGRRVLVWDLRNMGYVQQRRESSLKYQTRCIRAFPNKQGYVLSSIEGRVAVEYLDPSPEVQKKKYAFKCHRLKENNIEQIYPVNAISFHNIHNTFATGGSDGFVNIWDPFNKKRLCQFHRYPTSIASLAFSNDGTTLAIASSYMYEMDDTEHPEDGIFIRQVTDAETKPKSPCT
UniProt P52565: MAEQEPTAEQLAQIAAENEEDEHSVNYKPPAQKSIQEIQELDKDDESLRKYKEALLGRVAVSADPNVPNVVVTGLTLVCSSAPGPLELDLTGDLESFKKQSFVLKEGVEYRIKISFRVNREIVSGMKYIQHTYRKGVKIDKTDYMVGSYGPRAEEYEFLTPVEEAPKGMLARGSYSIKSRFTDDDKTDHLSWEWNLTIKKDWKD
UniProt Q9Y224: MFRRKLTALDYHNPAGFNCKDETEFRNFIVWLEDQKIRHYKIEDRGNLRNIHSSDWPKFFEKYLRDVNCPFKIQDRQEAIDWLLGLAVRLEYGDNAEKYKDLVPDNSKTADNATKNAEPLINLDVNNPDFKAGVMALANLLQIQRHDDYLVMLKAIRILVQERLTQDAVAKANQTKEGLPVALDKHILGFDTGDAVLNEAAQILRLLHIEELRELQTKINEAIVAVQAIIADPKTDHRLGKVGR
UniProt Q7Z569: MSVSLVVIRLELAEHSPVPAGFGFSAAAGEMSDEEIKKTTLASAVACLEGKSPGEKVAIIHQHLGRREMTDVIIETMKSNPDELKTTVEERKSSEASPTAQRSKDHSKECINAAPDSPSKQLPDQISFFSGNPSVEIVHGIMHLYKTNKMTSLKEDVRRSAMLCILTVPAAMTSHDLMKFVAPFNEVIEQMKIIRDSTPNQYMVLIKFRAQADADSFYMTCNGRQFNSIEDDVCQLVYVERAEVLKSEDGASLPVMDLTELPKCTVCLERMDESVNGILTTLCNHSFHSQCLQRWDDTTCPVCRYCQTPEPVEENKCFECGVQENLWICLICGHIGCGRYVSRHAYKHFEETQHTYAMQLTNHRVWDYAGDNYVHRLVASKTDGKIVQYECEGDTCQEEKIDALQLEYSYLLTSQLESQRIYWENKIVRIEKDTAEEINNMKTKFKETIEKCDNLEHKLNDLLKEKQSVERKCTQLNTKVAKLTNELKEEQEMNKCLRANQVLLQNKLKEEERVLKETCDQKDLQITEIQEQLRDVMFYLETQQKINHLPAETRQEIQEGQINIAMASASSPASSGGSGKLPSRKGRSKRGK
UniProt Q6QNY0: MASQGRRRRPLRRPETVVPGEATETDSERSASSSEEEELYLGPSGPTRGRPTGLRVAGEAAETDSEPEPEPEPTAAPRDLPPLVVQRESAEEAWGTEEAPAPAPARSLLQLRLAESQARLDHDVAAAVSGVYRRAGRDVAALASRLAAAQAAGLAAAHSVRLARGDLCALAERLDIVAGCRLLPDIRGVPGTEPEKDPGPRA
UniProt Q96BM9: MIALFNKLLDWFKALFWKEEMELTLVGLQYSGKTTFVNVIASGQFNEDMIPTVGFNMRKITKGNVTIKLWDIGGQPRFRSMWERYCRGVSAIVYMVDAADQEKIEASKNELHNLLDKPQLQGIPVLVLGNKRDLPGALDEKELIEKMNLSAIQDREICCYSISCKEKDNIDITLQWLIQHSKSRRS
UniProt Q2TAZ0: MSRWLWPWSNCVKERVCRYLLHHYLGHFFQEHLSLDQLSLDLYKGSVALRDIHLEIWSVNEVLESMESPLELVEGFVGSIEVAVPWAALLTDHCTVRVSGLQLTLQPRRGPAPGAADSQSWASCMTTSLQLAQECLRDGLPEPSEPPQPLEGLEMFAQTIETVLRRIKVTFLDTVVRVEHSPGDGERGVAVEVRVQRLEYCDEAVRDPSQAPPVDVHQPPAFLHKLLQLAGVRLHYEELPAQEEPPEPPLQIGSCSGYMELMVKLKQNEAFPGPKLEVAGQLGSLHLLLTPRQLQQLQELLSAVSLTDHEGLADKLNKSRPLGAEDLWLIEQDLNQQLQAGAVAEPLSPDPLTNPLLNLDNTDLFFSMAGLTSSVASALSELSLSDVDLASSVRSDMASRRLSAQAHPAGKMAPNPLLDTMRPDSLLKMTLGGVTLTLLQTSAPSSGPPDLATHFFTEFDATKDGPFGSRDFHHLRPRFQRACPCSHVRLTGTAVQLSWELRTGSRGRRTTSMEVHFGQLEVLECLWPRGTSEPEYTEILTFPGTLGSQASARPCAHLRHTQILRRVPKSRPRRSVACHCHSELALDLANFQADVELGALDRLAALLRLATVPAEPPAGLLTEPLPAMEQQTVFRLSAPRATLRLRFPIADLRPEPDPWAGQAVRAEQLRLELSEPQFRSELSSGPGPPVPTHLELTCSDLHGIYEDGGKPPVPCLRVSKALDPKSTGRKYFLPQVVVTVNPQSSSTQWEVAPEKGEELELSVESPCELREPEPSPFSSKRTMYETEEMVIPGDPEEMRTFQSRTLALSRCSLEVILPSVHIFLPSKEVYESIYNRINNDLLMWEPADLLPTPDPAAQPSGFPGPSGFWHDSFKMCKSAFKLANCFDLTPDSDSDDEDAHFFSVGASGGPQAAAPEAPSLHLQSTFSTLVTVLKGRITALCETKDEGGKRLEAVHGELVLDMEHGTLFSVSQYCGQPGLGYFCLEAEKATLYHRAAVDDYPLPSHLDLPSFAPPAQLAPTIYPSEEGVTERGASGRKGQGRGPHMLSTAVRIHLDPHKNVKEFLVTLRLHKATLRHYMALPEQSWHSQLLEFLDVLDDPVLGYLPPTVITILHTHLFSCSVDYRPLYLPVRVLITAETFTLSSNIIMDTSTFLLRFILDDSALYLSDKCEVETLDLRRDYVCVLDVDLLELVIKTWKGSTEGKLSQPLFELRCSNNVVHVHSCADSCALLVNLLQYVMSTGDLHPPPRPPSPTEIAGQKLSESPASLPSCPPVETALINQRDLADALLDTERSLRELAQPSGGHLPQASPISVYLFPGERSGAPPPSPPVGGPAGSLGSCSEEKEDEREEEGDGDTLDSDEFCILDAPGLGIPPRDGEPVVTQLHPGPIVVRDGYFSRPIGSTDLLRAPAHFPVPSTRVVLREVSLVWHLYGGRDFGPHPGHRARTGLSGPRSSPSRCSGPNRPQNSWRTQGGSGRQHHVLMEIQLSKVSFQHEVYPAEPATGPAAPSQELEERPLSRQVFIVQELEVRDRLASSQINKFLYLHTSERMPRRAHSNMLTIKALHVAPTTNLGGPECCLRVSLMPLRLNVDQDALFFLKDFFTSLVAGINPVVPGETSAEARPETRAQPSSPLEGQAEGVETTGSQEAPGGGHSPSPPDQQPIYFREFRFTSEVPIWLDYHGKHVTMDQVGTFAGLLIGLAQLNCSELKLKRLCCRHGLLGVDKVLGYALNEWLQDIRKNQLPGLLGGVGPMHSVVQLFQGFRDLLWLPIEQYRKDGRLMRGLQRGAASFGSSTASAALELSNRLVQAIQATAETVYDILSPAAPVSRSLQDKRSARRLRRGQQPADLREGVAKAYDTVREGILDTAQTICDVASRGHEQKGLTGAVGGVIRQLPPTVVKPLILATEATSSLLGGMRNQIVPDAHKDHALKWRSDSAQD
UniProt Q99933: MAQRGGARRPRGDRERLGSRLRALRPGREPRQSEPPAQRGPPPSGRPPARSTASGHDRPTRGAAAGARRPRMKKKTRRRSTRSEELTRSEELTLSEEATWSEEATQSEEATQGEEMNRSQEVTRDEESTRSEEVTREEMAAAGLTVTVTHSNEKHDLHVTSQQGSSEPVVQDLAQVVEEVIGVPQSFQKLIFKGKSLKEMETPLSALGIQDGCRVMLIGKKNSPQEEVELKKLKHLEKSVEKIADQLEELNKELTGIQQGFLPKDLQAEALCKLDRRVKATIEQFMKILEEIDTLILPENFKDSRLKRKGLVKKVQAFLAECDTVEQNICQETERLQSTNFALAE
UniProt Q9NWV8, whole entry: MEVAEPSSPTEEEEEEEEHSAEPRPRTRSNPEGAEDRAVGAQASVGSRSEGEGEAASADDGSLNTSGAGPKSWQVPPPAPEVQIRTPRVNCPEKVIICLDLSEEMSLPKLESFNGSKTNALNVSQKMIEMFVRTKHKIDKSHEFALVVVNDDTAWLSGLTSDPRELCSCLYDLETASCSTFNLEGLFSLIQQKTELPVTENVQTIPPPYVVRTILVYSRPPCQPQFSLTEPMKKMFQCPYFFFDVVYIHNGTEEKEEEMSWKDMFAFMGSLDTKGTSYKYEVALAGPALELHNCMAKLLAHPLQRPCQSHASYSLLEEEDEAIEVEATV

Target | dose-dependent thermal stabilisation call
ARL14EP (UniProt Q8N8R7) | inactive: 0
BIRC2 (UniProt Q13490) | inactive: 0
CAPZA1 (UniProt P52907) | inactive: 0
BPTF (UniProt Q12830) | inactive: 0
BAP1 (UniProt Q92560) | inactive: 0
BTF3L4 (UniProt Q96K17) | inactive: 0
ATF7 (UniProt P17544) | inactive: 0
BRAF (UniProt P15056) | active: 1
ARHGAP35 (UniProt Q9NRY4) | inactive: 0
ARPC3 (UniProt O15145) | inactive: 0
BUB3 (UniProt O43684) | inactive: 0
C1orf123 (UniProt Q9NWV4) | inactive: 0
ARHGDIA (UniProt P52565) | inactive: 0
C14orf166 (UniProt Q9Y224) | inactive: 0
BRAP (UniProt Q7Z569) | inactive: 0
BLOC1S3 (UniProt Q6QNY0) | inactive: 0
ARPC5 (UniProt O15511) | inactive: 0
ARL8A (UniProt Q96BM9) | active: 1
ATG2A (UniProt Q2TAZ0) | inactive: 0
ARMC6 (UniProt Q6NXE6) | active: 1
BCL7A (UniProt Q4VC05) | inactive: 0
BDH2 (UniProt Q9BUT1) | inactive: 0
BAG1 (UniProt Q99933) | inactive: 0
BABAM1 (UniProt Q9NWV8) | inactive: 0
ATP5A1 (UniProt P25705) | active: 1
BRCA1 (UniProt P38398) | inactive: 0
C21orf33 (UniProt P0DPI2) | inactive: 0

Six entries from above, set out differently.
Target	dose-dependent thermal stabilisation call
ARMC6 (UniProt Q6NXE6)	active: 1
BCL7A (UniProt Q4VC05)	inactive: 0
BDH2 (UniProt Q9BUT1)	inactive: 0
BAG1 (UniProt Q99933)	inactive: 0
BABAM1 (UniProt Q9NWV8)	inactive: 0
ATP5A1 (UniProt P25705)	active: 1

Reference: the supplement of paper PMC7666118
